Test results reported in patent US11559497B2 (Guangzhou Dazhou Biomedicine Ltd., priority 2020, dated 2023).
Some of these results come from one statement about several compounds together. For at least one compound, name, drawing or mass did not settle the structure.

Tested on: subjects diagnosed with major depressive disorder (MDD)
Experiment: Phase 1 clinical study: antidepressant (pharmacodynamic) effects, MADRS, SDQ, CGI-S, CGI-I
Assay type: in vivo, human
Conditions: PK/PD correlation around Tmax, FIG. 10

SMILES | concentration at which the MADRS response reaches about the near maximal effects [ng/mL]
NC1(c2ccccc2Cl)CCCC(O)C1=O (centres unmarked) [Hydroxynorketamine, hydroxynorketamine] | 20 to 30
CNC1(c2ccccc2Cl)CCCCC1=O (racemic) [Ketamine, ketamine] | 20 to 30
